Laboratory results reported in PubChem BioAssay AID2685 (National Center for Advancing Translational Sciences (NCATS), 2010).
“And” between values parts separate entries of the source, which are not always exact repeats. Equal values may be shown once. The campaign covered roughly 320,000 compounds. About 2,100 (0.66%) were called active. The inconclusive results got no clear call from the source; some entries with a clear call stand among them for comparison. Calls follow the shape of the dose curve; as a rule, active = well fitted inhibition curve with a large enough effect in the signal ratio, with a control signal flat (not every such curve was filed as active); inconclusive = small, poorly fitted or top-dose-only effect, or effect the other way, or a change in a side signal; inactive = flat fitted curve, though single readings scatter; the % refers to the signal ratio. Potencies of inconclusive entries are doubtful fits and often do not repeat.

Assay: qHTS Assay for Lipid Storage Modulators in Drosophila S3 Cells
Conditions: BODIPY lipid droplet fluorescence, 18-24 h, cells fed with added oleic acid; lipid storage change, negative = inhibition: at 46.1 µM (top of the series) unless noted
In short: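 Drosophila S3 cells got compounds at several concentrations plus oleic acid (400 uM solution). Laser-scanning cytometry with 488 nm excitation read lipid droplets at 500-530 nm and cells at 575-640 nm. Percent activity was relative to 20 uM Triacsin C.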
% is scaled to controls: 0 for no effect and ±100 for the full control effect; potency is read from the fitted curve at half-maximal effect.

Row | SMILES | Potency | lipid storage change, negative = inhibition | outcome
1 | Cc1cc(=O)oc2cc(OCC(=O)N3CCN(c4ccc(F)cc4)CC3)ccc12 | inconclusive: 29.1 µM [falling, single point] | – | –
2 | COC(=O)[C@@]12CCCN1[C@H](c1ccc(-c3ccc4c(c3)OCO4)c(OC)c1)[C@H]1C(=O)N(C)C(=O)[C@H]12 | – | inconclusive: 64.4% | –
3 | NC(=O)CC(NC(=O)Cc1cccc2ccccc12)c1ccc(NCCCN2CCCC2=O)c([N+](=O)[O-])c1 (stereo unspecified) | inconclusive: 25.9 µM [activator, partial curve, poor fit] | – | –
4 | CCN(C(=O)CSc1nc2ccccc2c(=O)n1Cc1ccc(C)cc1)C1CCS(=O)(=O)C1 (stereo unspecified) | – | inconclusive: 26% | –
5 | Cc1nn(CC(=O)O)c(C)c1N | – | inconclusive: 4.05% | –
6 | Cc1cc(C)cc(NC(=O)CSc2cc(C(=O)c3nccn3C)c3ccccc3n2)c1 | – | inconclusive: 55.7% | –
7 | CC(C)(C)OC(=O)[C@H](Cc1ccccc1)NC(=O)c1[nH]cnc1C(=O)Nc1cccc(Cl)c1 | inconclusive: 29.1 µM [falling, single point] | – | –
8 | COc1ccc(-n2c(/C=C(\C)O)nc(=O)c3c(C)cc(C)nc32)cc1 | – | – | inactive [at 46.1 µM]
9 | CCOC(=O)C(C)Sc1nnc(-c2ccccc2O)n1Cc1ccccc1 (stereo unspecified) | – | inconclusive: 23% | –
10 | O=C(CCC1CCCC1)N1CCN(C2CCCC2)CC1 | – | inconclusive: 16.1% | –
11 | COc1cccc2c1OC[C@@H](CO)[C@H]2N(C)C(=O)Nc1ccc(Cl)cc1 | inconclusive: 0.0046 µM [activator, full curve, poor fit] | – | –
12 | COc1ccccc1Cn1c(=S)[nH]c2cc(C(=O)N3CCCC3)ccc2c1=O | inconclusive: 7.31 µM [activator, partial curve] | – | –
13 | CCCN(CC(=O)Nc1ccc(F)c(F)c1F)C(=O)C1=COCCO1 | – | inconclusive | –
14 | O=C(C1=C(O)C(=O)N(CCCN2CCOCC2)C1c1ccc(Cl)cc1)c1cc2ccccc2o1 (stereo unspecified) | – | inconclusive: -19.5% | –
15 | CS(=O)(=O)N(CC(=O)NCc1ccco1)c1ccc(Cl)cc1Cl | – | inconclusive: 8.2% | –
16 | O=C(Nc1cccc(-c2nc3ncccc3o2)c1)c1sc2cc(Cl)ccc2c1Cl | inconclusive: 29.1 µM [activator, single point] | – | –
17 | Cc1c(C(=O)N2CCOCC2)sc2nc(-c3ccccc3)cn12 | – | inconclusive: -5.39% | –
18 | CC[C@H](C)NC(=O)c1ccc(Cn2c(=S)[nH]c3c([nH]c4ccc(OC)cc43)c2=O)cc1 | – | inconclusive: -29.6% | –
19 | O=C(Nc1ccc(NC(=O)c2ccco2)c(Cl)c1)c1cccc([N+](=O)[O-])c1 | – | inconclusive: 24.7% | –
20 | Cc1cc(C(=O)N(C)CC(=O)Nc2ccccc2C(F)(F)F)c(C)o1 | inconclusive: 3.66 µM [activator, full curve] | – | –
21 | CN(CC1CCCO1)S(=O)(=O)c1ccc(C(=O)Nc2nc(-c3ccccn3)cs2)cc1 (stereo unspecified) | – | inconclusive: -25% | –
22 | O=C(COC(=O)c1c(F)cccc1F)NCCNC(=O)COC(=O)c1c(F)cccc1F | – | inconclusive: -48.8% | –
23 | Cc1ccc(S(=O)(=O)NCC(=O)NCC(=O)OCC(=O)N2CC(=O)Nc3ccccc32)cc1C | – | inconclusive: 4.69% | –
24 | O=C(c1ccc(CS(=O)(=O)c2ccc(Br)cc2)o1)N1CCCC1 | inconclusive: 29.1 µM [rising, single point] | – | –

Among those listed so far, these contain a halogen:
Row | SMILES | Potency | lipid storage change, negative = inhibition | outcome
1 | Cc1cc(=O)oc2cc(OCC(=O)N3CCN(c4ccc(F)cc4)CC3)ccc12 | inconclusive: 29.1 µM [falling, single point] | – | –
7 | CC(C)(C)OC(=O)[C@H](Cc1ccccc1)NC(=O)c1[nH]cnc1C(=O)Nc1cccc(Cl)c1 | inconclusive: 29.1 µM [falling, single point] | – | –
11 | COc1cccc2c1OC[C@@H](CO)[C@H]2N(C)C(=O)Nc1ccc(Cl)cc1 | inconclusive: 0.0046 µM [activator, full curve, poor fit] | – | –
13 | CCCN(CC(=O)Nc1ccc(F)c(F)c1F)C(=O)C1=COCCO1 | – | inconclusive | –
14 | O=C(C1=C(O)C(=O)N(CCCN2CCOCC2)C1c1ccc(Cl)cc1)c1cc2ccccc2o1 (stereo unspecified) | – | inconclusive: -19.5% | –
15 | CS(=O)(=O)N(CC(=O)NCc1ccco1)c1ccc(Cl)cc1Cl | – | inconclusive: 8.2% | –
16 | O=C(Nc1cccc(-c2nc3ncccc3o2)c1)c1sc2cc(Cl)ccc2c1Cl | inconclusive: 29.1 µM [activator, single point] | – | –
19 | O=C(Nc1ccc(NC(=O)c2ccco2)c(Cl)c1)c1cccc([N+](=O)[O-])c1 | – | inconclusive: 24.7% | –
20 | Cc1cc(C(=O)N(C)CC(=O)Nc2ccccc2C(F)(F)F)c(C)o1 | inconclusive: 3.66 µM [activator, full curve] | – | –
22 | O=C(COC(=O)c1c(F)cccc1F)NCCNC(=O)COC(=O)c1c(F)cccc1F | – | inconclusive: -48.8% | –
24 | O=C(c1ccc(CS(=O)(=O)c2ccc(Br)cc2)o1)N1CCCC1 | inconclusive: 29.1 µM [rising, single point] | – | –

Complete entries, looked up by structure.
`NC(=O)CC(NC(=O)Cc1cccc2ccccc12)c1ccc(NCCCN2CCCC2=O)c([N+](=O)[O-])c1` (stereo unspecified) reads Potency: inconclusive: 25.9 µM [activator, partial curve, poor fit]
`O=C(Nc1ccc(NC(=O)c2ccco2)c(Cl)c1)c1cccc([N+](=O)[O-])c1` reads lipid storage change, negative = inhibition: inconclusive: 24.7%

(list continues)

Row | SMILES | Potency | lipid storage change, negative = inhibition | outcome
25 | S=C(NCc1ccccc1)N1CCN(C(=S)NCc2ccccc2)CC1 | – | inconclusive: 2.28% | –
26 | O=C(COC(=O)CNS(=O)(=O)c1c(F)cccc1F)NC(=O)NC1CCCCC1 | inconclusive: 0.0052 µM [falling, full curve, poor fit] | – | –
27 | Cc1ccc(S(=O)(=O)N(CC(=O)N/N=C/c2ccco2)c2cc(Cl)cc(Cl)c2)cc1 | – | inconclusive: 4.8% | –
28 | CCOc1ccc(CN2CCN(Cc3ccc4cc(F)ccc4n3)CC2CCO)cc1 (stereo unspecified) | – | inconclusive: -29.5% | –
29 | Cc1ccc(CS(=O)Cc2ccc(C(=O)NCc3ccc4c(c3)OCO4)o2)cc1 (stereo unspecified) | inconclusive: 29.1 µM [activator, single point] | – | –
30 | N#C/C(=C\c1ccc(-c2cccc(C(F)(F)F)c2)o1)C(=O)Nn1cnnc1 | – | inconclusive: 1.26% | –
31 | CCOC(=O)NC(C(F)(F)F)(C(F)(F)F)P(=O)(c1ccccc1)c1ccccc1 | – | inconclusive: -13.4% | –
32 | Cc1ccc(C2=NS(=O)(=O)N(C)C(C(=O)NCc3ccccc3)=C2)cc1 | inconclusive: 20.6 µM [falling, single point] | – | –
33 | O=C(c1ccc(N2CCCC2=O)cc1)N1CCN(c2ccccc2O)CC1 | inconclusive: 0.164 µM [falling, full curve, poor fit] | – | –
34 | Cc1ccc(C(=O)NCC(=O)N2CCC3(CC2)NCCc2[nH]cnc23)cc1C | – | inconclusive: 4.4% | –
35 | O=[N+]([O-])c1ccccc1S(=O)(=O)Oc1ccc(C(=S)N2CCOCC2)cc1 | inconclusive: 13 µM [activator, partial curve, poor fit] | – | –
36 | CCOC(=O)N1CCN(C(=O)CCN2C(=O)COc3ccc(C)cc32)CC1 | inconclusive: 6.51 µM [cytotoxic, single point] | – | –
37 | CC(C)N1C/C(=C/c2cccnc2)C(=O)/C(=C/c2cccnc2)C1 | active: 23.1 µM | – | –
38 | Cc1c(OCc2nn[nH]n2)ccc2c(-c3ccccc3)cc(=O)oc12 | inconclusive: 0.651 µM [falling, full curve, poor fit] | – | –
39 | Cc1coc2c(C)c3oc(=O)c(CCC(=O)NCc4ccccn4)c(C)c3cc12 | – | inconclusive: -10.2% | –
40 | COc1cc(CNC(C)(C)CO)ccc1OCC(=O)Nc1ccc(Br)cc1 | – | inconclusive: -17.5% | –
41 | CCCOc1ccc2cc(C(=O)NCc3ccccc3)c(=O)oc2c1 | inconclusive: 6.51 µM [activator, single point] | – | –
42 | COc1cccc(CN=c2c([N+](=O)[O-])nn(-c3ccccc3C)n2O)c1 | inconclusive: 0.411 µM [falling, single point] | – | –
43 | COc1cc(/C=N/n2c(C)nnc2C)cc(OC)c1OC | inconclusive: 29.1 µM [falling, single point] | – | –
44 | C/C(O)=C/c1nc2ccccc2[nH]c1=O | inconclusive: 1.64 µM [activator, partial curve] | – | –
45 | Cc1ccc(NS(=O)(=O)c2ccc3c(c2)CC(=O)N3)cc1Cl | inconclusive: 10.3 µM [activator, partial curve, poor fit] | – | –
46 | CC1(C)Cc2c(sc3c2c2ncnn2c2nnc(SCC(=O)NCc4ccco4)n32)CO1 | inconclusive: 4.11 µM [falling, single point] | – | –
47 | COc1ccc2c(c1)O[C@@H](c1cccc(C(F)(F)F)c1)[C@H](OC(=O)Nc1ccc(OC(F)F)cc1)C2=O | – | inconclusive: 34.7% | –
48 | CCCn1c(SCC(=O)NCCc2ccccc2)nnc1-c1cccnc1 | – | inconclusive: 12.5% | –

Row | SMILES | Potency | lipid storage change, negative = inhibition | outcome
49 | COc1ccc2ccccc2c1/C=N/Nc1cccc(C(=O)O)c1 | – | inconclusive: 323% | –
50 | CC(C)(CO)NCc1cccs1 | – | inconclusive: 28% | –
51 | O=C(NCCC1=CCCCC1)c1ccc(Cl)c(S(=O)(=O)N2CCOCC2)c1 | inconclusive: 0.231 µM [falling, full curve, poor fit] | – | –
52 | N=c1n(-c2ccccc2)c(O)cc(=O)n1-c1ccccc1 | – | inconclusive: 15.1% | –
53 | CCCC(C)c1nnc(NC(=O)C2CC(=O)N(CCc3ccc(F)cc3)C2)s1 (stereo unspecified) | – | inconclusive: -21.7% | –
54 | Cc1ccn(CCC(=O)NC2CCCc3c2cnn3-c2cccc(C)c2C)n1 (stereo unspecified) | inconclusive: 2.06 µM [activator, full curve, poor fit] | – | –
55 | CC(C)OC(=O)C1C2C=CC3(CN(CC4CCCO4)C(=O)C13)O2 (stereo unspecified) | – | inconclusive: -11.6% and inconclusive: -24.9% | –
56 | O=C(NCCN1C(=O)S/C(=C\c2ccccc2F)C1=O)C1CCCN1C(=O)c1cccs1 (stereo unspecified) | – | inconclusive: -38.4% | –
57 | CCc1cc(C(=O)c2ccc(Br)cc2)c(NC(=O)CN(CC)CC)s1 | inconclusive: 29.1 µM [activator, single point] | – | –
58 | CS(=O)(=O)N(CC(=O)Nc1ccc(Br)cc1F)C1CCCCC1 | inconclusive: 29.1 µM [falling, single point] | – | –
59 | Cc1ccc(-c2nnc(NCc3nc4ccccc4[nH]3)c3ccccc23)cc1S(=O)(=O)N(C)C | – | inconclusive: -19.4% | –
60 | O=C(CN1CCCCC1)Nc1ccccc1Cl | – | inconclusive: -0.0101% | –
61 | Cc1nnc(NC(=O)CSc2nnc(-c3ccco3)o2)s1 | – | inconclusive: -0.773% | –
62 | O=C(CN1C(=O)c2ccccc2C1=O)NCCc1c[nH]c2ccccc12 | – | inconclusive: 6.81% | –
63 | COc1ccccc1N=NC1C(=O)N(C(N)=S)N=C1C (stereo unspecified) | inconclusive: 0.092 µM [falling, single point] | – | –
64 | O=C(O)C1CCN(S(=O)(=O)/C=C/c2ccccc2)CC1 | inconclusive: 0.164 µM [falling, full curve, poor fit] | – | –
65 | CCOc1ccc2c(c1)C(C)=CC(C)(C)N2 | – | inconclusive: -20.9% | –
66 | COc1ccc2sc(-c3ccccc3OC)c(C#CC(C)(C)O)c2c1 | – | inconclusive: 8.57% | –
67 | CCC(=O)N1CCc2cc(S(=O)(=O)NCCC(=O)Nc3cc(C)cc(C)c3)ccc21 | – | inconclusive: -25.1% | –
68 | C#CCOc1ccccc1CNc1ccccc1 | – | inconclusive: 2.56% | –
69 | CCC(C)(C(=O)NC1CCCC1)N(C(=O)c1cnccn1)c1ccccc1 (stereo unspecified) | – | inconclusive: 51.6% | –
70 | COc1ccc(N/C(=C/[N+](=O)[O-])SC)cc1 | inconclusive: 1.16 µM [falling, single point] | – | –
71 | COc1ccc(-c2nc(N)n[nH]2)cc1 | – | inconclusive: 0.159% | –
